Residue numbers refer to the chain shown, from its start. Names may count otherwise. These are yes or no findings as the source states them, for the method shown. In cells and extracts the contact can be indirect. Some binding calls cover weakened binding; strength is not graded here. Sequences can lack the tags named with a protein.

Amino acid sequences for entries named in this document (tags omitted).
UniProt P14635: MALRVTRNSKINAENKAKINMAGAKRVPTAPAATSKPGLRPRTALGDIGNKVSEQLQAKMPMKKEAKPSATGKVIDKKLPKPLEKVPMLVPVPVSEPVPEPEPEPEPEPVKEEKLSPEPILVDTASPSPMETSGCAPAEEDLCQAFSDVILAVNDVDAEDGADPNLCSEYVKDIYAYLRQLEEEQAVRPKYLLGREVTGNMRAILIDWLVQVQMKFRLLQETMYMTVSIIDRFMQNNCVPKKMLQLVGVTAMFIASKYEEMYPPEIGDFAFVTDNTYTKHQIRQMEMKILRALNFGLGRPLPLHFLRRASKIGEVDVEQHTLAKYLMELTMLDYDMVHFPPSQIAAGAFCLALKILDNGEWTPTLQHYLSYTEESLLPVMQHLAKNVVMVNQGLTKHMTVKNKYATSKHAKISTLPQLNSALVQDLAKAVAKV

Our source for the binding values is article PMC5703050.

Assay [1] deals with T1, TREX1-V5 wild type (human) (UniProt Q9NSU2).
T1 sequence: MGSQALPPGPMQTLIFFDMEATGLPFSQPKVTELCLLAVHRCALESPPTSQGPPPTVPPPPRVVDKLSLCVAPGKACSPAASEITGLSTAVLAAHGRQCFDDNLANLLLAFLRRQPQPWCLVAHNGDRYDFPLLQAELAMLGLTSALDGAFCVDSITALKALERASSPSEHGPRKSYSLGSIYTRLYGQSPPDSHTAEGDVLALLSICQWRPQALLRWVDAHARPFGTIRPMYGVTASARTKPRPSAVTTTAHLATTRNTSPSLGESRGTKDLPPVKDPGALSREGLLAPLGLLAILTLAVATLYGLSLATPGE
Briefly: co-IP; TREX1-V5 and cyclin B1-Myc6 overexpressed in 293T cells arrested in mitosis by nocodazole; extracts immunoprecipitated with anti-V5 agarose beads, cyclin B detected with anti-Myc antibody.

The target in a further assay is T2, Myc-RPN1 (UniProt P04843).
T2 sequence: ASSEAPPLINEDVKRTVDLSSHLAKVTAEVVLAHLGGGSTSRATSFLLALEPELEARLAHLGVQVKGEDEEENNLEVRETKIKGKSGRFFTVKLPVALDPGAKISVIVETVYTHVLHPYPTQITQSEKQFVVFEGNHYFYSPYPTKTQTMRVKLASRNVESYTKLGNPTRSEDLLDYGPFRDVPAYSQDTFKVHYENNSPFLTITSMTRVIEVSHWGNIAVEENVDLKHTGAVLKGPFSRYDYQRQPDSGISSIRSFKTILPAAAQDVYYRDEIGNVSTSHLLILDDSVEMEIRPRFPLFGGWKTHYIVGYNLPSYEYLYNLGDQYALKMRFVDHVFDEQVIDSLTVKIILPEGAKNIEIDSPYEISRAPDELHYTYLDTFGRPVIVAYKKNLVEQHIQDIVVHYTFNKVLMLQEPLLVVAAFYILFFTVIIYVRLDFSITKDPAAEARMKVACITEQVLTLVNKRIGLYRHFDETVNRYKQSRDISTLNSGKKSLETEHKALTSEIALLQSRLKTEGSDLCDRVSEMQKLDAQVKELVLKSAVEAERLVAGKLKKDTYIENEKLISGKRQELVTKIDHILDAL
Briefly: co-IP; V5-tagged WT, mutant or truncated TREX1 and Myc-RPN1 co-expressed in 293T cells; IP with anti-Myc and Dynabeads Protein G overnight at 4°C; IP buffer 20 mM Tris-HCl pH 7.4, 150 mM NaCl, 0.5% NP-40; washes with 500 mM NaCl and 50 mM NaCl; immunoblot.

Consider “Cyclin B1-Myc6 (from UniProt P14635 1-433)”, for which, in assay [1], the binding result is listed as “binds”.

B1: TREX1 1-290, V5-tagged (domain or fragment, UniProt Q9NSU2-3 1-290)
chain: MGSQALPPGPMQTLIFFDMEATGLPFSQPKVTELCLLAVHRCALESPPTSQGPPPTVPPPPRVVDKLSLCVAPGKACSPAASEITGLSTAVLAAHGRQCFDDNLANLLLAFLRRQPQPWCLVAHNGDRYDFPLLQAELAMLGLTSALDGAFCVDSITALKALERASSPSEHGPRKSYSLGSIYTRLYGQSPPDSHTAEGDVLALLSICQWRPQALLRWVDAHARPFGTIRPMYGVTASARTKPRPSAVTTTAHLATTRNTSPSLGESRGTKDLPPVKDPGALSREGLLAP
Regarding B1, the binding entry with Myc-RPN1 is “binds”.

B2: TREX1 truncation 1-272, V5-tagged (domain or fragment, UniProt Q9NSU2-3 1-272)
chain: MGSQALPPGPMQTLIFFDMEATGLPFSQPKVTELCLLAVHRCALESPPTSQGPPPTVPPPPRVVDKLSLCVAPGKACSPAASEITGLSTAVLAAHGRQCFDDNLANLLLAFLRRQPQPWCLVAHNGDRYDFPLLQAELAMLGLTSALDGAFCVDSITALKALERASSPSEHGPRKSYSLGSIYTRLYGQSPPDSHTAEGDVLALLSICQWRPQALLRWVDAHARPFGTIRPMYGVTASARTKPRPSAVTTTAHLATTRNTSPSLGESRGTKD
For the molecule B2, in the assay with Myc-RPN1, the binding result is “binds”.

B3: TREX1-V5 wild type (protein, UniProt Q9NSU2-3 1-314)
chain: T1 sequence
Turning to B3, the binding entry with Myc-RPN1 is listed as “binds”.

B4: TREX1 S78A/S261A, V5-tagged (protein, UniProt Q9NSU2-3 1-314)
chain: T1 sequence with S78A, S261A
Consider B4, for which the binding result with Myc-RPN1 is listed as “binds”.

B5: TREX1 truncation 1-235, V5-tagged (domain or fragment, UniProt Q9NSU2-3 1-235)
chain: MGSQALPPGPMQTLIFFDMEATGLPFSQPKVTELCLLAVHRCALESPPTSQGPPPTVPPPPRVVDKLSLCVAPGKACSPAASEITGLSTAVLAAHGRQCFDDNLANLLLAFLRRQPQPWCLVAHNGDRYDFPLLQAELAMLGLTSALDGAFCVDSITALKALERASSPSEHGPRKSYSLGSIYTRLYGQSPPDSHTAEGDVLALLSICQWRPQALLRWVDAHARPFGTIRPMYGV
As to B5, the binding result with Myc-RPN1 was “binds weakly”.
